No constants are given. Whether binding was seen depends on the method and setting. For some of these results: Binding can be weak; no strength is given.
Experiments:
human CD3 (human) [1] = test: Octet (BLI)
monkey CD3 (monkey) [2] = test: Octet (BLI)
human CD3 (human) [3] = test: absorbance assay (Net absorbance, Abs 450) on 'Human CD3-mG2a'; one unprinted antibody concentration
monkey CD3 (monkey) [4] = test: absorbance assay (Net absorbance, Abs 450) on 'Cynomolgus CD3'; one unprinted antibody concentration; calls it Octet binding analysis
monkey CD3 (monkey) [5] = test: absorbance assay (Net absorbance, Abs 450) on 'Cynomolgus CD3'; one unprinted antibody concentration
monkey CD3 (monkey) [6] = test: absorbance assay (Net absorbance, Abs 450) on 'Cynomolgus CD3'; antibody concentration not given

Row | Binder | binding (human CD3 (human) [1]) | binding (monkey CD3 (monkey) [2]) | binding (human CD3 (human) [3]) | binding (monkey CD3 (monkey) [4]) | binding (monkey CD3 (monkey) [5]) | binding (monkey CD3 (monkey) [6])
1 | h8B5-h3G8v2, bispecific anti-Trop2 (h8B5) / anti-CD3 (h3G8 scFv V2, VL-VH with 3xGS linker) (bispecific antibody, human IgG1, kappa) heavy: EVQLVESGGGLVQPGGSLRLSCAASGFTFSTYTMSWVRQTPAKGLVWVSTINSDGYNIYYSDSMKGRFTISRDNAKYTLYLQMNSLRAEDTAMYYCARCSYYSYDYFDYWGQGTLVTVSSASTKGPSVFPLAPSSKSTSGGTAALGCLVKDYFPEPVTVSWNSGALTSGVHTFPAVLQSSGLYSLSSVVTVPSSSLGTQTYICNVNHKPSNTKVDKRVEPKSCDKTHTCPPCPAPELLGGPSVFLFPPKPKDTLMISRTPEVTCVVVDVSQEDPEVQFNWYVDGVEVHNAKTKPREEQFNSTYRVVSVLTVLHQDWLNGKEYKCKVSNKGLPSSIEKTISKAKGQPREPQVYTLPPSQEEMTKNQVSLTCLVKGFYPSDIAVEWESNGQPENNYKTTPPVLDSDGSFFLYSRLTVDKSRWQEGNVFSCSVMHEALHNHYTQKSLSLSLGKPAGGGGSDIVMTQSPDSLAVSLGERATINCKSSQSLLNSRTRKNYLAWYQQKPGQPPKLLIYWASTRESGVPDRFSGSGSGTDFTLTISSLQAEDVAVYYCTQSFILRTFGQGTKVEIKGGGGSGGGGSGGGGSQVQLVQSGAEVKKPGASVKVSCKASGYTFTSYYMHWVRQAPGQGLEWMGWIYPENVNTNYAQKFQGRVTMTRDTSISTAYMELSRLRSDDTAVYYCARDSYGSYFFDYWGQGTLVTVSS light: DIQMTQSPSSLSASVGDRVTITCRASENIDNYLAWYQQKQGKVPKLLIYAATNLADGMPSRFSGSGSGTDFTLTISSLQPEDVATYYCQHYYSNQLTFGQGTKLEIKRTVAAPSVFIFPPSDEQLKSGTASVVCLLNNFYPREAKVQWKVDNALQSGNSQESVTEQDSKDSTYSLSSTLTLSKADYEKHKVYACEVTHQGLSSPVTKSFNRGEC | binds | binds | binds | binds |  | 
2 | h8B5-h3G8v3, bispecific anti-Trop2 (h8B5) / anti-CD3 (h3G8 scFv V3, VH-VL with 6xGS linker) (bispecific antibody, human IgG1, kappa) heavy: EVQLVESGGGLVQPGGSLRLSCAASGFTFSTYTMSWVRQTPAKGLVWVSTINSDGYNIYYSDSMKGRFTISRDNAKYTLYLQMNSLRAEDTAMYYCARCSYYSYDYFDYWGQGTLVTVSSASTKGPSVFPLAPSSKSTSGGTAALGCLVKDYFPEPVTVSWNSGALTSGVHTFPAVLQSSGLYSLSSVVTVPSSSLGTQTYICNVNHKPSNTKVDKRVEPKSCDKTHTCPPCPAPELLGGPSVFLFPPKPKDTLMISRTPEVTCVVVDVSQEDPEVQFNWYVDGVEVHNAKTKPREEQFNSTYRVVSVLTVLHQDWLNGKEYKCKVSNKGLPSSIEKTISKAKGQPREPQVYTLPPSQEEMTKNQVSLTCLVKGFYPSDIAVEWESNGQPENNYKTTPPVLDSDGSFFLYSRLTVDKSRWQEGNVFSCSVMHEALHNHYTQKSLSLSLGKPAGGGGSQVQLVQSGAEVKKPGASVKVSCKASGYTFTSYYMHWVRQAPGQGLEWMGWIYPENVNTNYAQKFQGRVTMTRDTSISTAYMELSRLRSDDTAVYYCARDSYGSYFFDYWGQGTLVTVSSGGGGSGGGGSGGGGSGGGGSGGGGSGGGGSDIVMTQSPDSLAVSLGERATINCKSSQSLLNSRTRKNYLAWYQQKPGQPPKLLIYWASTRESGVPDRFSGSGSGTDFTLTISSLQAEDVAVYYCTQSFILRTFGQGTKVEIK light: DIQMTQSPSSLSASVGDRVTITCRASENIDNYLAWYQQKQGKVPKLLIYAATNLADGMPSRFSGSGSGTDFTLTISSLQPEDVATYYCQHYYSNQLTFGQGTKLEIKRTVAAPSVFIFPPSDEQLKSGTASVVCLLNNFYPREAKVQWKVDNALQSGNSQESVTEQDSKDSTYSLSSTLTLSKADYEKHKVYACEVTHQGLSSPVTKSFNRGEC | binds | binds | binds |  | binds | 
3 | ARB203-h3G8 v1 (bispecific antibody) heavy: EVQLVESGGGLVQPGGSLRLSCAASGFTFSTYTMSWVRQTPAKGLVWVSTINSDGYNIYYSDSMKGRFTISRDNAKYTLYLQMNSLRAEDTAMYYCARCSYYSYDYFDYWGQGTLVTVSSASTKGPSVFPLAPSSKSTSGGTAALGCLVKDYFPEPVTVSWNSGALTSGVHTFPAVLQSSGLYSLSSVVTVPSSSLGTQTYICNVNHKPSNTKVDKRVEPKSCDKTHTCPPCPAPELLGGPSVFLFPPKPKDTLMISRTPEVTCVVVDVSQEDPEVQFNWYVDGVEVHNAKTKPREEQFNSTYRVVSVLTVLHQDWLNGKEYKCKVSNKGLPSSIEKTISKAKGQPREPQVYTLPPSQEEMTKNQVSLTCLVKGFYPSDIAVEWESNGQPENNYKTTPPVLDSDGSFFLYSRLTVDKSRWQEGNVFSCSVMHEALHNHYTQKSLSLSLGKPAGGGGSQVQLVQSGAEVKKPGASVKVSCKASGYTFTSYYMHWVRQAPGQGLEWMGWIYPENVNTNYAQKFQGRVTMTRDTSISTAYMELSRLRSDDTAVYYCARDSYGSYFFDYWGQGTLVTVSSGGGGSGGGGSGGGGSDIVMTQSPDSLAVSLGERATINCKSSQSLLNSRTRKNYLAWYQQKPGQPPKLLIYWASTRESGVPDRFSGSGSGTDFTLTISSLQAEDVAVYYCTQSFILRTFGQGTKVEIK light: DIQMTQSPSSLSASVGDRVTITCRASENIDNYLAWYQQKQGKVPKLLIYAATNLADGMPSRFSGSGSGTDFTLTISSLQPEDVATYYCQHYYSNQLTFGQGTKLEIKRTVAAPSVFIFPPSDEQLKSGTASVVCLLNNFYPREAKVQWKVDNALQSGNSQESVTEQDSKDSTYSLSSTLTLSKADYEKHKVYACEVTHQGLSSPVTKSFNRGEC |  |  | binds |  |  | no binding

— US20250034273A1
